Holding throughout (experiment): co-IP
Assay [1] addresses FLAG-HA-SLX4 wild type (human) (UniProt Q8IY92).
For assay [2], the target named is endogenous SLX4 (human (endogenous in HeLa)) (UniProt Q8IY92).
A further assay deals with FHA-SLX4ΔMSH2bd (human) (UniProt Q8IY92).
Assay [3] addresses T1, FLAG-SLX4 340-580aa fragment (human) (UniProt Q8IY92).
T1 sequence: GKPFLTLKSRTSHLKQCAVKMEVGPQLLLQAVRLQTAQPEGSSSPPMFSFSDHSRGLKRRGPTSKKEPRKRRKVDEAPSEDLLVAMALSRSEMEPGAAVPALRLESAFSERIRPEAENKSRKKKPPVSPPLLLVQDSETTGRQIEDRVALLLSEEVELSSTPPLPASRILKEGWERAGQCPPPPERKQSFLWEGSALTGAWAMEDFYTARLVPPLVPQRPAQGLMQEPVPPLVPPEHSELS

Chains of the proteins cited; added tags and fusions are not shown.
UniProt P52701: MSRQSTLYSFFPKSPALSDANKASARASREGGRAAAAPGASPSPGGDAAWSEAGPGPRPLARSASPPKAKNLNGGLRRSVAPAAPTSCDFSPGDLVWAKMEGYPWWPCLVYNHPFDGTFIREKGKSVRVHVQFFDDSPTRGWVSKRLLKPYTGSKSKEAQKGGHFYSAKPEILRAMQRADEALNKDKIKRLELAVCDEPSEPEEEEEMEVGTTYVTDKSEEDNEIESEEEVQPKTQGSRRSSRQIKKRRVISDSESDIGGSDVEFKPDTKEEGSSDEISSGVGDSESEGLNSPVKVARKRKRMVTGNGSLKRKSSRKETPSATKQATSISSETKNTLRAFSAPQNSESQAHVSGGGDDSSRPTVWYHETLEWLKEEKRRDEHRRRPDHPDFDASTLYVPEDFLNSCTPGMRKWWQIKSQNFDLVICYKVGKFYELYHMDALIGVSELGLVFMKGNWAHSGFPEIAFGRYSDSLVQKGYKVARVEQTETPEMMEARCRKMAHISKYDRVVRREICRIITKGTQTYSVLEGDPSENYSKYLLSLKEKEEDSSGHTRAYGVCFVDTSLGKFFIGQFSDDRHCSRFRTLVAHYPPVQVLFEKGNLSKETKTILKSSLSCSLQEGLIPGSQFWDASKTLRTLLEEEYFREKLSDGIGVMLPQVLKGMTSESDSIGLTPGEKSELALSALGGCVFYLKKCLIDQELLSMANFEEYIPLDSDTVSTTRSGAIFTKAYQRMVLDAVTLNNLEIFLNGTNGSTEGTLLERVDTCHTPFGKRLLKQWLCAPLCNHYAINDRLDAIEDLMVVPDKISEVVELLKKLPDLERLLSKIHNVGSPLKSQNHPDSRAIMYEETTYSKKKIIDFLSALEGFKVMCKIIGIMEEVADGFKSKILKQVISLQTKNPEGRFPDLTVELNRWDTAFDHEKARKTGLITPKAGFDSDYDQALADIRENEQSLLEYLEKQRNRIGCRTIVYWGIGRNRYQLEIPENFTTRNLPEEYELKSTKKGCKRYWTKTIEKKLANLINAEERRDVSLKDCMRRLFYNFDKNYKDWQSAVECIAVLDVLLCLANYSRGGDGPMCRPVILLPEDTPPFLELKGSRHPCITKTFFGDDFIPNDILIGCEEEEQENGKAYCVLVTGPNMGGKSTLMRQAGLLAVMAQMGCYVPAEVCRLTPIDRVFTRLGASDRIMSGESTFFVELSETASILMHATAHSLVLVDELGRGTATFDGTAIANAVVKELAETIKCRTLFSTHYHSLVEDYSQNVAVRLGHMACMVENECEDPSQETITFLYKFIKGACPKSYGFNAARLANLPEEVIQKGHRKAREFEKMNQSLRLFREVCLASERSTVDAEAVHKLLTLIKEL
UniProt P20585: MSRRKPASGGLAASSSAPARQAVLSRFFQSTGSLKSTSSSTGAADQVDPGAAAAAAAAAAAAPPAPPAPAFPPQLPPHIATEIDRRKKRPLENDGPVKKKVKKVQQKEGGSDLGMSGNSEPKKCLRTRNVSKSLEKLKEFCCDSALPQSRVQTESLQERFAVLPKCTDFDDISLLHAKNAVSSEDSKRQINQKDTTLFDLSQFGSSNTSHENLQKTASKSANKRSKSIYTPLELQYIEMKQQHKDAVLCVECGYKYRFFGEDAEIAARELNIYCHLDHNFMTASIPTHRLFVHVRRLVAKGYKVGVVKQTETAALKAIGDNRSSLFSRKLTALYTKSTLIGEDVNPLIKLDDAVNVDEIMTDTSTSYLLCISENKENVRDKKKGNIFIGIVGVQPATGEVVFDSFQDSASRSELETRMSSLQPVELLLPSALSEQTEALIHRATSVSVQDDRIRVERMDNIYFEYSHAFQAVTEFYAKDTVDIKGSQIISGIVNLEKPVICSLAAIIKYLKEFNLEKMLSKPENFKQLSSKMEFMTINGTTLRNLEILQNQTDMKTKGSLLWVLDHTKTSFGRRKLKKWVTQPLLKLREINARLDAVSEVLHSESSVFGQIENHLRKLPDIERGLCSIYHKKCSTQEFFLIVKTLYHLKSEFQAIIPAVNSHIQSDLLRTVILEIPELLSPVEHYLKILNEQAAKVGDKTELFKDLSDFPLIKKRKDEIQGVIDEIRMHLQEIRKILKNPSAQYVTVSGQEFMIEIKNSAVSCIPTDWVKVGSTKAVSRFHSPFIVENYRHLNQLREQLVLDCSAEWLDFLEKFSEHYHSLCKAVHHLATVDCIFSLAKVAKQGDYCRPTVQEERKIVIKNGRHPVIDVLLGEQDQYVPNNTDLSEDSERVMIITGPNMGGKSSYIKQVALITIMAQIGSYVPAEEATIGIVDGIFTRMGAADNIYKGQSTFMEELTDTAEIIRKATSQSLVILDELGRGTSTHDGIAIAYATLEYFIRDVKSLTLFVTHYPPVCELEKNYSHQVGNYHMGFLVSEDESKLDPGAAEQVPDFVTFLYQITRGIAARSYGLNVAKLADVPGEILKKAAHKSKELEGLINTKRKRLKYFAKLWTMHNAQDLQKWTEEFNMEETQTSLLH

No constants are given. Whether binding was seen depends on the method and setting. In cells and extracts the contact can be indirect. Some results given as binding are weak or reduced against the parent protein; the word gives no strength. For some of these results: Tags and fused reporters may be left off the sequences shown.

Consider “endogenous MSH6 (from UniProt P52701 1-1360)”, for which the binding result in assay [1] and in assay [2] was “binds” in each case.

Turning to “endogenous MSH3 (from UniProt P20585 1-1137)”, the binding result in assay [1] and in assay [2] was “binds” in each case.

B1: endogenous XPF (protein, UniProt Q92889 1-916)
chain: MESGQPARRIAMAPLLEYERQLVLELLDTDGLVVCARGLGADRLLYHFLQLHCHPACLVLVLNTQPAEEEYFINQLKIEGVEHLPRRVTNEITSNSRYEVYTQGGVIFATSRILVVDFLTDRIPSDLITGILVYRAHRIIESCQEAFILRLFRQKNKRGFIKAFTDNAVAFDTGFCHVERVMRNLFVRKLYLWPRFHVAVNSFLEQHKPEVVEIHVSMTPTMLAIQTAILDILNACLKELKCHNPSLEVEDLSLENAIGKPFDKTIRHYLDPLWHQLGAKTKSLVQDLKILRTLLQYLSQYDCVTFLNLLESLRATEKAFGQNSGWLFLDSSTSMFINARARVYHLPDAKMSKKEKISEKMEIKEGEETKKELVLESNPKWEALTEVLKEIEAENKESEALGGPGQVLICASDDRTCSQLRDYITLGAEAFLLRLYRKTFEKDSKAEEVWMKFRKEDSSKRIRKSHKRPKDPQNKERASTKERTLKKKKRKLTLTQMVGKPEELEEEGDVEEGYRREISSSPESCPEEIKHEEFDVNLSSDAAFGILKEPLTIIHPLLGCSDPYALTRVLHEVEPRYVVLYDAELTFVRQLEIYRASRPGKPLRVYFLIYGGSTEEQRYLTALRKEKEAFEKLIREKASMVVPEEREGRDETNLDLVRGTASADVSTDTRKAGGQEQNGTQQSIVVDMREFRSELPSLIHRRGIDIEPVTLEVGDYILTPEMCVERKSISDLIGSLNNGRLYSQCISMSRYYKRPVLLIEFDPSKPFSLTSRGALFQEISSNDISSKLTLLTLHFPRLRILWCPSPHATAELFEELKQSKPQPDAATALAITADSETLPESEKYNPGPQDFLLKMPGVNAKNCRSLMHHVKNIAELAALSQDELTSILGNAANAKQLYDFIHTSFAEVVSKGKGKK
As for B1, the binding entry (with FHA-SLX4ΔMSH2bd (human); in assay [1]; in assay [3]) was “binds” throughout.

The values are drawn from article doi:10.1101/2021.10.12.464076.
